In PubChem BioAssay AID540303 (National Center for Advancing Translational Sciences (NCATS), 2011):
The campaign covered roughly 330,000 compounds. About 1,000 (0.3%) were called active. This list was built around the results that the source calls inconclusive (neither active nor inactive); the mix of calls is not that of the screen. The call rests on the fitted dose curve; in most records, active means well fitted inhibition curve with a large enough effect; inconclusive means small, poorly fitted or top-dose-only effect; inactive means no such curve, though single readings can be large or run the other way; tested in mouse RAW 264.7 cells. A potency beside an inconclusive call is a rough fit, not a confirmed value.

test: qHTS for Inhibitors of Cell Surface uPA Generation; conditions: cell surface uPA generation assay; series mostly up to 38.3 µM; activity change, negative = inhibition: at the top concentration; further: nearly all actives have a fitted effect of over 55% in size
How it was run: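 RAW 264.7 cells (4000/well) were plated overnight at 37 C and then given compounds in a 1:5 series (up to 38.3 uM final) plus reagent for 24 h. Intracellular ATP was measured by ATP-Lite luminescence and stays elevated when uPA-dependent LF entry is blocked.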
On the % scale 0 is the no-effect control and ±100 the full control effect; potency means the concentration at half of the fitted maximal effect.

**Q.** With `Cn1c(/C=C/c2ccc(Cl)cc2)c([N+](=O)[O-])c(=O)n(C)c1=O` as the compound, how does the Potency read?
**A.** active: 5.62 µM

**Q.** For `COc1ccc2c(c1)c(/C=N/Nc1ccc(C(=O)O)cc1)c(C)n2C`, which “activity change, negative = inhibition” value is on record?
**A.** inactive: 7.22%

**Q.** Which Potency does the source give for `Cn1nnnc1Sc1ncnc2scc(-c3ccc[nH]3)c12` here?
**A.** inconclusive: 7.08 µM [inhibitor, partial curve, poor fit]

**Q.** Which Potency does the source give for `Cc1ccn2c(NC3CCCCC3)c(-c3cccc(-c4cccc(Cl)c4)c3)nc2c1` here?
**A.** inconclusive: 12.6 µM [inhibitor, single point]

**Q.** Which “activity change, negative = inhibition” value does the source give for `CCCCn1c(N)c(N(CC(C)C)C(=O)CC2CCCCC2)c(=O)[nH]c1=O` here?
**A.** inactive: -0.665%

**Q.** For `CN1C(=O)C(CC(=O)N2CCN(C(c3ccccc3)c3ccccc3)CC2)N(C)C1=O` (stereo unspecified), which “activity change, negative = inhibition” value is on record?
**A.** inactive: -4.51%

**Q.** Which Potency does the source give for `Oc1cccc(Nc2c3ccccc3nc3ccccc23)c1` here?
**A.** inconclusive: 3.55 µM [inhibitor, single point]

**Q.** With `Cc1cc(NC(=O)CSc2nc3ccccc3c(=O)n2C2CCCC2)no1` as the compound, how does the “activity change, negative = inhibition” value read?
**A.** inactive: -10.2%

**Q.** For `O=C(CCN1C(=O)/C(=C/c2ccccc2F)SC1=S)NC1C=CS(=O)(=O)C1` (stereo unspecified), which Potency is on record?
**A.** inconclusive: 3.16 µM [inhibitor, partial curve, poor fit]

**Q.** For `CCOC(=O)N1C(=O)[C@@](c2ccc(Cl)cc2)(C(C)C)N1C(=O)OCC`, which Potency is on record?
**A.** inconclusive: 6.31 µM [inhibitor, partial curve, poor fit]

**Q.** Which “activity change, negative = inhibition” value does the source give for `CC(OC(=O)C1=COCCO1)C(=O)NC(C)c1ccc(Cl)cc1Cl` (stereo unspecified) here?
**A.** inactive: -20%

**Q.** For `CCc1ccc(-c2nc(CCl)cs2)cc1`, which “activity change, negative = inhibition” value is on record?
**A.** inactive: -12%

**Q.** For `Cc1ccccc1Nc1nc(Nc2ccccc2C)nc(SC2=NCCS2)n1`, which “activity change, negative = inhibition” value is on record?
**A.** inactive: -12.6%

**Q.** For `C=CCn1c(SCC(=O)c2ccc(O)c(O)c2)nnc1-c1cccc(C)c1`, which Potency is on record?
**A.** inconclusive: 5.01 µM [inhibitor, partial curve]

**Q.** For `COc1ccc(NC(=O)C2CCN(S(C)(=O)=O)CC2)c(OC)c1`, which Potency is on record?
**A.** inconclusive: 0.0126 µM [inhibitor, full curve, poor fit]

**Q.** For `CCn1c(/C=C/N(C)c2ccccc2)[n+](CC)c2ccc(Cl)cc21`, which Potency is on record?
**A.** inconclusive: 3.98 µM [inhibitor, partial curve]

**Q.** For `CCn1c(/C=C/c2ccccc2)nc2ccccc21`, which Potency is on record?
**A.** inconclusive: 1.26 µM [inhibitor, partial curve]

**Q.** Which Potency does the source give for `CCc1ccc(-c2cc(C)no2)cc1S(=O)(=O)NCCc1ccc(S(N)(=O)=O)cc1` here?
**A.** inconclusive: 11.2 µM [inhibitor, partial curve, poor fit]

**Q.** With `CCn1c(-c2sc(-c3ccccc3)nc2C)n[nH]c1=S` as the compound, how does the “activity change, negative = inhibition” value read?
**A.** inactive: -2.22%

**Q.** For `O=C1c2ccccc2-c2n[nH]c(=O)c3ccc(N4CCCCC4)c1c23`, which “activity change, negative = inhibition” value is on record?
**A.** inactive: -15.5%

**Q.** Which Potency does the source give for `O=Cc1ccc(OCc2ccc3c(c2)OCO3)cc1` here?
**A.** inconclusive: 10 µM [inhibitor, single point]
